Values quoted from earlier work in patent US20060150828A1, “Dried infant cereal compositions” (Beech-Nut Nutrition Corporation, priority 2005, published 2006).
Some results were stated once for a whole list of compounds, not compound by compound.

Conditions: storage at 37° C., precooked whole wheat flour containing the iron salt

Substance: ferrous gluconate
- storage time until judged unacceptable by a taste panel: 4 to 6 weeks
